Article PMC5472308, “Characterization of the regulation of a plant polysaccharide utilization operon and its role in biofilm formation in Bacillus subtilis” (PLoS ONE, 2017)

Protein sequences, listed by entry. Tags and fused reporters are not part of them. Lines headed by an entry give the natural chain unless they say otherwise; changes in a name come on top.
UniProt O07008: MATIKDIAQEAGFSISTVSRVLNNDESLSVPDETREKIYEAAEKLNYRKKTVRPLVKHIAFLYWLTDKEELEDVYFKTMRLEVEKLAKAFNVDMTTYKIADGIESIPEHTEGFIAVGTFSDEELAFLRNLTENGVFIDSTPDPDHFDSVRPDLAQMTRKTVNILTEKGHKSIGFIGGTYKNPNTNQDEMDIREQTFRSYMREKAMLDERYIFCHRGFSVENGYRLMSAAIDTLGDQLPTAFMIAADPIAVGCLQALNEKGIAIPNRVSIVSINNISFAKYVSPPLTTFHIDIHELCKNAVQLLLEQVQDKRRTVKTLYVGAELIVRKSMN

Target: His6-GanR (Bacillus subtilis 3610) (UniProt O07008)
Assay: EMSA
Conditions: 10 mM Tris-HCl (pH not stated), 50 mM NaCl, 1 mM EDTA, 5% glycerol, 1 mM DTT, 10 ug/ml BSA, on ice 20 min, Cy3 probes with poly-dIdC, gel 0.5X TBE at 4 C, recombinant protein, protein details: His6, probe letters rebuilt from the primers and the genome

Sequence | binding result (two shifted bands at highest GanR (1-30 uM protein, ~0.3 uM DNA)) | binding result (one shifted band (1-30 uM protein, ~0.3 uM DNA))
GTACGAATTCCGGACCCGATTGCAGTGGGCTGTCTGCAAGCCCTGAACGAAAAAGGAATTGCCATACCAAACAGGGTAAGCATTGTGAGTATCAACAACATCAGCTTCGCGAAGTATGTCTCGCCTCCTCTGACGACGTTTCATATTGATATACATGAATTATGTAAAAACGCTGTTCAATTACTGCTTGAACAAGTGCAGGACAAGAGAAGAACGGTAAAAACATTATATGTGGGCGCAGAATTAATCGTCAGGAAGAGTATGAATTAAGGATGACTTAGGACACTAAGTCATTTTTTATTTAGGTAAAAAAATTTACTCTATGAAGTAAATAGTTTGTTTACACATTTTCTCAGGCATGCTATATTATCTTTAAAGCGCTTTCATTCCTACCGAAGGATCCGTAC (double strand) [PganS (ganS promoter)] | binds | 
GTACGAATTCCGAACGGATTTACAATGCTGTGGCTGCCGGGAACGGTGCACAGGCGGAAGCCGCCATGCTGGCGCATTTGACGAATGTGGAAGATGTGCTTTCGGGATATTTCGAGGAAAATGTGCAATAACCAACTCATTTCCCGGGCAATTCCGCCGGTTCCGAATGATACGAACAACTGAGACTGAGCCGCAAATGGTTCAGTCTTTTTACATGGCAGCCAGAGGGCTTTGTGCACTTGACATTTGTGAAAAAGAAAGTAAAATATTTTACTAAAACAATGCGAGCTGAATAATGGATCCGCGGCCGCGTAC (double strand) [PganR (ganR promoter)] |  | binds

The exact form of at least one protein or probe is not confirmed.
